Sequences of proteins named here, by UniProt entry; tags and fusion partners are left off. A change or cut given only in a name is not applied to a line headed by its entry.
UniProt P51784: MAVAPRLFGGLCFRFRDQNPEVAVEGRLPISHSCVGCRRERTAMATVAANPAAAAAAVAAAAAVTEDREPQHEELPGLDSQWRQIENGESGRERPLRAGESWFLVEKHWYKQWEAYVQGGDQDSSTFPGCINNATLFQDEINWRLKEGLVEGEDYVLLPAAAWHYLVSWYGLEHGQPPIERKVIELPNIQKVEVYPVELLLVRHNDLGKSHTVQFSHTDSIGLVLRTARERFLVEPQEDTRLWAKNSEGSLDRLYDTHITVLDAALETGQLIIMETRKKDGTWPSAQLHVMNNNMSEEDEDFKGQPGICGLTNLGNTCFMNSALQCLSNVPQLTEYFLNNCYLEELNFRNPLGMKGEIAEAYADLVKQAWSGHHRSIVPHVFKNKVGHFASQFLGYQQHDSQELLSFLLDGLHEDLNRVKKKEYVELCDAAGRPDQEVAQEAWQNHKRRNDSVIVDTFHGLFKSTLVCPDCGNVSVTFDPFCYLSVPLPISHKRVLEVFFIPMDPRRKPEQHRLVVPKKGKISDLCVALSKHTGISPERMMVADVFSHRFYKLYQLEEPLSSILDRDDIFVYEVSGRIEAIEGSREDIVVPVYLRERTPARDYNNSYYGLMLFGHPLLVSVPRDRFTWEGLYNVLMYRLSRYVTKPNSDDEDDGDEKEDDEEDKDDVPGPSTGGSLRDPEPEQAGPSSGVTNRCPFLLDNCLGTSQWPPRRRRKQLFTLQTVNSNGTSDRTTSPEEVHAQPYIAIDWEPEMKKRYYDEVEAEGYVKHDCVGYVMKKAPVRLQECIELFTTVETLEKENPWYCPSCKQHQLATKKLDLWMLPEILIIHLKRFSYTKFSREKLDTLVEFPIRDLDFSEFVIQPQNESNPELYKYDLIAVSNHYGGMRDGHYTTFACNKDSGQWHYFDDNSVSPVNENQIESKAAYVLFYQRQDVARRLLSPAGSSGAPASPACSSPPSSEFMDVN
UniProt P11686: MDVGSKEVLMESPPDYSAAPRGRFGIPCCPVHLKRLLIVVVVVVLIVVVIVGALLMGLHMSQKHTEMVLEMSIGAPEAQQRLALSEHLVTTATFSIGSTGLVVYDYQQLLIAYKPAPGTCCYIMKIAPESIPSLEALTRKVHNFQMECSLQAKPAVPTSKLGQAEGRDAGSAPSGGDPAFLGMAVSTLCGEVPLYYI

According to publication PMC11984411:

Columns and labels:
Experiment in all cases: co-IP; lysates of transfected cells (HEK293) with ectopically expressed HA-USP11 and Myc-SFTPC constructs, precipitated with HA or Myc antibody at 4 °C overnight, protein A/G agarose, western blot
HA-USP11 = HA-USP11 (UniProt P51784)
Myc-SFTPC^I73T (human) = Myc-SFTPC^I73T (human) (UniProt P11686)
Myc-SFTPC (human) = Myc-SFTPC (human) (UniProt P11686)

binding (HA-USP11)	binding (Myc-SFTPC^I73T (human))	binding (Myc-SFTPC (human))	Substance
binds	–	–	Myc-SFTPC (from UniProt P11686)
–	binds	binds	HA-USP11 (from UniProt P51784 1-963) (enzyme)

Results are given in words; binding and its absence hold for the method and conditions named. Binding seen in cells or lysates may run through a third protein. A result given as binding can be weak or reduced; the word gives no strength.
